{
  "sequences": {"note": "Sequences of proteins named here, by UniProt entry; tags and fusion partners are left off. A change or cut given only in a name is not applied to a line headed by its entry.", "UniProt A0A3Q7I3M4": "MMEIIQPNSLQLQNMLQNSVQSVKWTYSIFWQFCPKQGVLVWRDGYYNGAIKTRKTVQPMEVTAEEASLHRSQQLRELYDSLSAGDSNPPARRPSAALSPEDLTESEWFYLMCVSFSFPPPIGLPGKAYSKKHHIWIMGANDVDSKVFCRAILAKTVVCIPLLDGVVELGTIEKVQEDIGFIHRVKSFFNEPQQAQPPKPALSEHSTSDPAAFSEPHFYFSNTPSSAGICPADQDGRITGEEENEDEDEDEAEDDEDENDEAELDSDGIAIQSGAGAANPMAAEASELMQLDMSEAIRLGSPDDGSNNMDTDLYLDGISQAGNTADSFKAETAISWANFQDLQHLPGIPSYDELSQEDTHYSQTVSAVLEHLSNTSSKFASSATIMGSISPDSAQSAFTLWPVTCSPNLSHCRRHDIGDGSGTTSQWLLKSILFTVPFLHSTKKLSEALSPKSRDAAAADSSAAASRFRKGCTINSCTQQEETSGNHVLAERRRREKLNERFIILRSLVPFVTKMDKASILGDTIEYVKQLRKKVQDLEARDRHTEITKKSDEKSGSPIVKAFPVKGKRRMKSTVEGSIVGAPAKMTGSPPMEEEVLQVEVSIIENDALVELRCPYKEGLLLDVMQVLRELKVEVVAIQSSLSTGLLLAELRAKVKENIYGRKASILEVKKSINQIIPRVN"},
  "source": "paper PMC11968270",
  "molecular_target": "GST-SlTTG1 (tomato (Solanum lycopersicum))",
  "test": "pull-down; purified His-tagged and GST-tagged proteins (or GST) mixed equally, incubated with GST agarose at 4 °C for 2 h, washed at least 10 times with PBS; immunoblot with anti-GST and anti-His; both purified",
  "note": "No constants are given. Whether binding was seen depends on the method and setting. Binding calls can cover weak binding; strength is not graded here.",
  "data": [
    {"substance": "His-SlbHLH150 (from UniProt A0A3Q7I3M4)", "values": [
      {"measurement": "binding", "result": "binds"}
    ]}
  ]
}
